Patent US20100075908A1 (published 2010)

Target: purified GPIb (glycoprotein Ib)
Test: array of overlapping 10-mer vWf peptides on nitrocellulose probed with 1 mg/mL purified GPIb

## SHAYIGLKDR [SHAYIGLKDR (SEQ ID NO:8)]
  binding: binds

Results are given in words; binding and its absence hold for the method and conditions named. A result given as binding can be weak or reduced; the word gives no strength.
